In doi:10.1101/808782:
Results are given in words; binding and its absence hold for the method and conditions named. Binding seen in cells or lysates may run through a third protein. Some results given as binding are weak or reduced against the parent protein; the word gives no strength.

Chains of the proteins cited; added tags and fusions are not shown. Lines headed by an entry give the natural chain unless they say otherwise; changes in a name come on top.
UniProt P60953: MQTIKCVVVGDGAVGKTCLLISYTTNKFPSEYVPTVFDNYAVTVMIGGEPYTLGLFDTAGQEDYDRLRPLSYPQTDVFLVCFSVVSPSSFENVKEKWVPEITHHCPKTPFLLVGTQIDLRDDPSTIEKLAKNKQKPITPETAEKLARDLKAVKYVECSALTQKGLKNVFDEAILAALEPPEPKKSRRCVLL

What was measured:
[1] = target: GFP-tagged Cdc42 C188S (human) (UniProt P60953); assay: co-IP
[2] = target: GFP-tagged wild-type Cdc42 (human) (UniProt P60953); assay: co-IP

B1: GDP dissociation inhibitor GDI1 (protein, UniProt P52565 1-204)
chain: MAEQEPTAEQLAQIAAENEEDEHSVNYKPPAQKSIQEIQELDKDDESLRKYKEALLGRVAVSADPNVPNVVVTGLTLVCSSAPGPLELDLTGDLESFKKQSFVLKEGVEYRIKISFRVNREIVSGMKYIQHTYRKGVKIDKTDYMVGSYGPRAEEYEFLTPVEEAPKGMLARGSYSIKSRFTDDDKTDHLSWEWNLTIKKDWKD
binding [1]: no binding | binding [2]: binds
